From US20130158238A1 (THERACLONE SCIENCES, published 2013)
No constants are given. Whether binding was seen depends on the method and setting. Some binding calls cover weakened binding; strength is not graded here.

Chains of the proteins cited; added tags and fusions are not shown.
UniProt P06821: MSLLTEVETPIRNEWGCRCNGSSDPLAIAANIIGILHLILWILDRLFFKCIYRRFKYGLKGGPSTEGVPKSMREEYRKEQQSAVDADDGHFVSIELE

How the values were obtained:
[1] = biological target: M2 protein on influenza A/Puerto Rico/8/34 (H1N1) virus particles (Influenza A virus A/Puerto Rico/8/34 (H1N1)) (UniProt P06821); assay: ELISA on virus, crude supernatants
[2] = biological target: M2 protein on influenza A/Puerto Rico/8/34 (H1N1) virus particles (Influenza A virus A/Puerto Rico/8/34 (H1N1)) (UniProt P06821); assay: ELISA on PR8 virus, crude supernatants

B1: 23K12 (antibody, V domains shown)
VH: EVQLVESGGGLVQPGGSLRISCAASGFTVSSNYMSWVRQAPGKGLEWVSVIYSGGSTYYADSVKGRFSFSRDNSKNTVFLQMNSLRAEDTAVYYCARCLSRMRGYGLDVWGQGTTVTVS
VL: DIQMTQSPSSLSASVGDRVTITCRTSQSISSYLNWYQQKPGKAPKLLIYAASSLQSGVPSRFSGSGSGTDFTLTISGLQPEDFATYYCQQSYSMPAFGQGTKLEIK
For B1, the binding [1] was “binds” and the binding [2] was “binds”.
